Data: patent US20240358762A1 (UNIVERSITY OF PITTSBURGH OF THE COMMONWEALTH SYSTEM OF …, published 2024)
These are yes or no findings as the source states them, for the method shown. Some results given as binding are weak or reduced against the parent protein; the word gives no strength.

Biological target: T1, human PRTG fibronectin type-III 1 domain (human) (UniProt Q2VWP7)
T1 sequence (looked up): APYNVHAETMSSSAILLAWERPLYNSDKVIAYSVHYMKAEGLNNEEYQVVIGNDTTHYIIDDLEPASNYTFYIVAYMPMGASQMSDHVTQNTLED
Assay: ELISA

binding: binds
B1: VH domain Clone #1 (other)
VH: EVQLVESGGGLVQPGGSLRLSCKASGFTVSSNYMHWVRQAPGKGLEWIGGINHSGRTNYKSSLKSRVTISRDNSKNTLYLQMNSLRAEDTAVYYCARLPPSRDGYNYADYWGQGTLVTVSS
notes: also called #1 (VH domain)
